This passage reports binding results from publication PMC7481185.

Sequences of proteins named here, by UniProt entry; tags and fusion partners are left off.
UniProt P25696: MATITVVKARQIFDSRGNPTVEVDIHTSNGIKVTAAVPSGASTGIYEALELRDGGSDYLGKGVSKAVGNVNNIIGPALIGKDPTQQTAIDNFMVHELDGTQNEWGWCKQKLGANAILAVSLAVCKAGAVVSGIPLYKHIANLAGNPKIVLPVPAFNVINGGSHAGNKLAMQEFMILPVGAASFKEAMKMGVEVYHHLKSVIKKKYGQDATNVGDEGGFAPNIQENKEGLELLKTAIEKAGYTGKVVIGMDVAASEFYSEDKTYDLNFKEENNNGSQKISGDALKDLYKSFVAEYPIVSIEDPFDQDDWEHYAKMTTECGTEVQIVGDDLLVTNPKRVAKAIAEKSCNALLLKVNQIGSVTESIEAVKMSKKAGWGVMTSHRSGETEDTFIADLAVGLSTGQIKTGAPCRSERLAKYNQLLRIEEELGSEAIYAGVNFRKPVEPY

In the test the target is enolase fluorescent fusion (FLIM-FRET) (Arabidopsis thaliana) (UniProt P25696). The experiment in a line: FRET or BRET; FLIM-FRET; mCitrine donor and mCherry acceptor fusions constitutively expressed in plant cell culture; enolase-mCitrine with free mCherry as negative control. For orientation: BRET reads energy transfer from a luciferase to a nearby fluorophore.

These are yes or no findings as the source states them, for the method shown. In cells and extracts the contact can be indirect. Some results given as binding are weak or reduced against the parent protein; the word gives no strength.

For the substance “enolase fluorescent fusion (FLIM-FRET) (from UniProt P25696 1-444) (enzyme)”, the binding entry is reported as “binds”.
